Binding data for 3 molecules are collected here from PMC12167495.

By UniProt entry, the sequences of proteins in these tests, tags left out. Residues count along the entry.
UniProt Q91ZX7, residues 20-4545: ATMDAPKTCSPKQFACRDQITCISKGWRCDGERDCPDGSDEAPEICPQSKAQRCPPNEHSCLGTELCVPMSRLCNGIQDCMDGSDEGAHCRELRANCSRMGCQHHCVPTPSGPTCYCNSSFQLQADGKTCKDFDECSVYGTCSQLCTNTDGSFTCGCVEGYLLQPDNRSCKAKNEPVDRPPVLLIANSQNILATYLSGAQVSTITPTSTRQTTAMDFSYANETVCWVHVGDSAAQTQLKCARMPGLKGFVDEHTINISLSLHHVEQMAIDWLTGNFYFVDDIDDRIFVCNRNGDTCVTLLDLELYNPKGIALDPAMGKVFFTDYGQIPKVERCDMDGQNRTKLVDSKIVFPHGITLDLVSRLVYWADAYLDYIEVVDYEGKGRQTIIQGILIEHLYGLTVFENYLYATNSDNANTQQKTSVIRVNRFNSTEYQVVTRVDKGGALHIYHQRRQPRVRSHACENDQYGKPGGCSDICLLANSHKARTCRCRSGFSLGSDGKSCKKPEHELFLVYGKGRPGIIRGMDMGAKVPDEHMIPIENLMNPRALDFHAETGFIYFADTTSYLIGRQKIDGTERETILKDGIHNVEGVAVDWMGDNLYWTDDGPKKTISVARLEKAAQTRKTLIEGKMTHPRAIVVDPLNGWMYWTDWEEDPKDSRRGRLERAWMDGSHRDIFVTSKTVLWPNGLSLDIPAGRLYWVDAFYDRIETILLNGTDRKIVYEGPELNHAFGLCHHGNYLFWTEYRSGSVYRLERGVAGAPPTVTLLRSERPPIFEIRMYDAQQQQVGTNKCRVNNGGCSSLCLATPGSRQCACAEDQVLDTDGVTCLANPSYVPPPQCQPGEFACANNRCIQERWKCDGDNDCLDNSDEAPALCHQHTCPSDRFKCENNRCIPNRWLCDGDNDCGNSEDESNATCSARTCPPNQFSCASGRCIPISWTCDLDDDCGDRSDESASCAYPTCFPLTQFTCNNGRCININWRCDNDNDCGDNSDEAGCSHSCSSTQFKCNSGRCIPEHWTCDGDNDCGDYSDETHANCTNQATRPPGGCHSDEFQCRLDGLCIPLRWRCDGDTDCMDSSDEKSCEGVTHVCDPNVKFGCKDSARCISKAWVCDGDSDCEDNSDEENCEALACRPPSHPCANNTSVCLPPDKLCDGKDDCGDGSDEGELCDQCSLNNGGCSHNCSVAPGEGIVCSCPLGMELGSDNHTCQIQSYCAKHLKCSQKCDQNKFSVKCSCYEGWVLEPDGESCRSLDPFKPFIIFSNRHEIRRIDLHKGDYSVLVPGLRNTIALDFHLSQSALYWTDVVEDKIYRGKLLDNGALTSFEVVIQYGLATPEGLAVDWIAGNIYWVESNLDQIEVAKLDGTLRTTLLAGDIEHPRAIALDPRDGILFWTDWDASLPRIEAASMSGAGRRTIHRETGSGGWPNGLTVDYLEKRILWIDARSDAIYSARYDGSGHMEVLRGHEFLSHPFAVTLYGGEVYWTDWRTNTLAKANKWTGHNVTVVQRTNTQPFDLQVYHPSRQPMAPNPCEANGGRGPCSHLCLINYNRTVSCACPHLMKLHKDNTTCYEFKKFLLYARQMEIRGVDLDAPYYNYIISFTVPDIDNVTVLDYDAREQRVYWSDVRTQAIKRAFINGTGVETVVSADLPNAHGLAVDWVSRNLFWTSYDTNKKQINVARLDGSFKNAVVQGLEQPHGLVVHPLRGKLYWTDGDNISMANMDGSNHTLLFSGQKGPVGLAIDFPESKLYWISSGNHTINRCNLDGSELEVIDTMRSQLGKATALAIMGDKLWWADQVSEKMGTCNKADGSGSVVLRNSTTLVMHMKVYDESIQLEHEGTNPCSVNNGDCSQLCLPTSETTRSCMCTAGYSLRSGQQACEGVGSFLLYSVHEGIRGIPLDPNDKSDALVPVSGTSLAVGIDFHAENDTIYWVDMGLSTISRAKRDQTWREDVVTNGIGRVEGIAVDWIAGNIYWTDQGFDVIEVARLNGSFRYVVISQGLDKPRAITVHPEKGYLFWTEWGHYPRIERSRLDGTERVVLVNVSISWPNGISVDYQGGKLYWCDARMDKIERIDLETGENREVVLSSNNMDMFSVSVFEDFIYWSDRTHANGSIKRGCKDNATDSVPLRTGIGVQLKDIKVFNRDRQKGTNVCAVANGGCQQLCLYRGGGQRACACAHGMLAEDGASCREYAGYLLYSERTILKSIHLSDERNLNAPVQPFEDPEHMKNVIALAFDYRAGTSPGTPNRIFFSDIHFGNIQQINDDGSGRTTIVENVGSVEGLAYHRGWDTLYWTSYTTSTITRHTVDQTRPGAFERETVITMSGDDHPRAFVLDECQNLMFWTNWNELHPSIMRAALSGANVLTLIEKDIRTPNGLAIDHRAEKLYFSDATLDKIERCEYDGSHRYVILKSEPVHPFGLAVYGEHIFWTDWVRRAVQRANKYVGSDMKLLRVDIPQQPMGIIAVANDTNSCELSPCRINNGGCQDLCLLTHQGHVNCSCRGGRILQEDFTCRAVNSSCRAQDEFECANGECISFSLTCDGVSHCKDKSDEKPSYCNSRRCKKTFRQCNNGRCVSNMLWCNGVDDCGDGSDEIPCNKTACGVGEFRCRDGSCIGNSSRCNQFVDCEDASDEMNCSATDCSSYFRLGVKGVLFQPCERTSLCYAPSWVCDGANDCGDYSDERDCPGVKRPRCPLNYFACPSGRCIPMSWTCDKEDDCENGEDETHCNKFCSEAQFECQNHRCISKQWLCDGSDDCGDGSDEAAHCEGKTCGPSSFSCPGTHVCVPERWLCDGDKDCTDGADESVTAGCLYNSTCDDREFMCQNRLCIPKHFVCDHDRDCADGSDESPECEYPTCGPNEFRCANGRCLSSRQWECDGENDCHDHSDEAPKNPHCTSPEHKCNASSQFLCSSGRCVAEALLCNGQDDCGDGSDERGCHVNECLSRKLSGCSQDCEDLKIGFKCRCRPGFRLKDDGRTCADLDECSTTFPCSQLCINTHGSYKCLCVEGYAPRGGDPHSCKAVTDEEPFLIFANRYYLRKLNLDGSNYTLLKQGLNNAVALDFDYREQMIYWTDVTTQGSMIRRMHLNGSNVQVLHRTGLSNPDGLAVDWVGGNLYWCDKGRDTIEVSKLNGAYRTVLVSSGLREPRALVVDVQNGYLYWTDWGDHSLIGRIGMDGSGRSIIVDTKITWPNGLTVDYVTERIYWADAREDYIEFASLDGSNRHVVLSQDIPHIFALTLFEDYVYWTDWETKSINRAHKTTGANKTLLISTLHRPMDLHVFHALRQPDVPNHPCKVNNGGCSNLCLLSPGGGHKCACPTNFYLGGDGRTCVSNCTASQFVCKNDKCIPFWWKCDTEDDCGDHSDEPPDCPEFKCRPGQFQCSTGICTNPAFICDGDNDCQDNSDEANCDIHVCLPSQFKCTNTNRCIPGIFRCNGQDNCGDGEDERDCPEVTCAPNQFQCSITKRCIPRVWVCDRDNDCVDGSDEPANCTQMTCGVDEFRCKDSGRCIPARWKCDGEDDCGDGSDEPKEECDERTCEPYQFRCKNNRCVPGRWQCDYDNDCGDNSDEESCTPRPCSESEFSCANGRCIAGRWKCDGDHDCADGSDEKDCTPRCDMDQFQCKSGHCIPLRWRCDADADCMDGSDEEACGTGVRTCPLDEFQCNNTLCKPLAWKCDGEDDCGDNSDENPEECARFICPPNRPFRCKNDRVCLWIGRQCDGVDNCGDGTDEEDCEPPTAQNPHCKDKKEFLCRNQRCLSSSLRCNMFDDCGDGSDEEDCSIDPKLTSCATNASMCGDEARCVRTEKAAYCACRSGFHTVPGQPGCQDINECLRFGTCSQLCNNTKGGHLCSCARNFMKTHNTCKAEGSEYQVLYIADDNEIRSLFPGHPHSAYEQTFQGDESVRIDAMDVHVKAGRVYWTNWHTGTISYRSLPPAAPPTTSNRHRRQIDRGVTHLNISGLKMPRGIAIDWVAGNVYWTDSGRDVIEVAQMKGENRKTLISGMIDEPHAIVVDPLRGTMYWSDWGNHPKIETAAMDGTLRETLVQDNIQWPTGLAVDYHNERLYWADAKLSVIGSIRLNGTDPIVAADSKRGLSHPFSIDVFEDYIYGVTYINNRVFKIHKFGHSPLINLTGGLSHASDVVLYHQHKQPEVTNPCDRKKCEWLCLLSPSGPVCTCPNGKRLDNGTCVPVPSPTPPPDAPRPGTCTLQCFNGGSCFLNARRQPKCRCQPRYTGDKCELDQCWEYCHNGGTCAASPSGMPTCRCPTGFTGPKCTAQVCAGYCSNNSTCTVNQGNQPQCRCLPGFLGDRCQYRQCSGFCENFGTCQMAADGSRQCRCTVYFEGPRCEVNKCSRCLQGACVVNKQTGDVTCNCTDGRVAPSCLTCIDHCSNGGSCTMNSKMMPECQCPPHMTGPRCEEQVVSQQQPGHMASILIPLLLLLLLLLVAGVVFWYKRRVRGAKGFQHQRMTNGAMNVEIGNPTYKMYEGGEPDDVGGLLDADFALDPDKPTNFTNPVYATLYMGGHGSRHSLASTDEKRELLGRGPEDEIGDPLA

Results are given in words; binding and its absence hold for the method and conditions named. Binding seen in cells or lysates may run through a third protein. Some results given as binding are weak or reduced against the parent protein; the word gives no strength.

In experiment [1] the target is T1, plasminogen-activating inhibitor-1 (mouse (endogenous in C57BL/6 liver and primary mouse hepatocytes)) (UniProt P22777).
T1 sequence: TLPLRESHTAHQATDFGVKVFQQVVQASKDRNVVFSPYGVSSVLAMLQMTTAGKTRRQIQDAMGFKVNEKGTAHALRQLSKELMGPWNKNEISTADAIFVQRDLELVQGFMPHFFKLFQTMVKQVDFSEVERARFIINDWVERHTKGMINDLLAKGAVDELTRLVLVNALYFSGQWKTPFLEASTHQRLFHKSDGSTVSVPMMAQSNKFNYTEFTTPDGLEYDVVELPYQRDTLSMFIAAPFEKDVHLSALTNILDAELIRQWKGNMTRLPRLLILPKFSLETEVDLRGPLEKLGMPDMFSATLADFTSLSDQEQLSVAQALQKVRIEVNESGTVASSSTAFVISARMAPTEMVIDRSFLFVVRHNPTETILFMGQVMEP
The experiment can be described thus: co-IP; PAI-1 immunoprecipitated with an anti-PAI-1 antibody from lysates of primary mouse hepatocytes treated with 2 mM SAMe, 10 ng/mL IL-1β, alone or together, for 24 hours; Western blot for uPAR, LRP-1 and vitronectin. On the technique in general: Immunoblotting shows a protein as a band on a membrane.

Experiment [2] has as its target T1, plasminogen-activating inhibitor-1 (mouse (endogenous in C57BL/6 liver and primary mouse hepatocytes)). The experiment can be described thus: co-IP; PAI-1 immunoprecipitated with an anti-PAI-1 antibody from total liver lysates of control, FOLFOX-treated and FOLFOX + SAMe-treated mice; Western blot for uPAR, LRP-1 and vitronectin.
For experiment [3] the target is unchanged. The experiment is described as above. The source holds these as a separate data set.

On to “low-density lipoprotein receptor-related protein-1 (from UniProt Q91ZX7 20-4545)”, for which the binding entry in experiment [1] and in experiment [2] was “binds” throughout.

B1: urokinase plasminogen activator receptor (receptor, UniProt P35456 24-298)
chain: LQCMQCESNQSCLVEECALGQDLCRTTVLREWQDDRELEVVTRGCAHSEKTNRTMSYRMGSMIISLTETVCATNLCNRPRPGARGRAFPQGRYLECASCTSLDQSCERGREQSLQCRYPTEHCIEVVTLQSTERSLKDEDYTRGCGSLPGCPGTAGFHSNQTFHFLKCCNYTHCNGGPVLDLQSFPPNGFQCYSCEGNNTLGCSSEEASLINCRGPMNQCLVATGLDVLGNRSYTVRGCATASWCQGSHVADSFPTHLNVSVSCCHGSGCNSPTG
As to B1, the binding result in experiment [1] and in experiment [3] was “binds” each time.

B2: vitronectin (protein, UniProt P29788 20-478)
chain: DQESCKGRCTQGFMASKKCQCDELCTYYQSCCADYMEQCKPQVTRGDVFTMPEDDYWSYDYVEEPKNNTNTGVQPENTSPPGDLNPRTDGTLKPTAFLDPEEQPSTPAPKVEQQEEILRPDTTDQGTPEFPEEELCSGKPFDAFTDLKNGSLFAFRGQYCYELDETAVRPGYPKLIQDVWGIEGPIDAAFTRINCQGKTYLFKGSQYWRFEDGVLDPGYPRNISEGFSGIPDNVDAAFALPAHRYSGRERVYFFKGKQYWEYEFQQQPSQEECEGSSLSAVFEHFALLQRDSWENIFELLFWGRSSDGAREPQFISRNWHGVPGKVDAAMAGRIYVTGSLSHSAQAKKQKSKRRSRKRYRSRRGRGHRRSQSSNSRRSSRSIWFSLFSSEESGLGTYNNYDYDMDWLVPATCEPIQSVYFFSGDKYYRVNLRTRRVDSVNPPYPRSIAQYWLGCPTSEK
Take B2: the binding result in experiment [1] and in experiment [3] was “binds” each time.
